{"sequences": {"note": "Sequences of proteins named here, by UniProt entry; tags and fusion partners are left off.", "UniProt Q0JBA9, entry or part of it": "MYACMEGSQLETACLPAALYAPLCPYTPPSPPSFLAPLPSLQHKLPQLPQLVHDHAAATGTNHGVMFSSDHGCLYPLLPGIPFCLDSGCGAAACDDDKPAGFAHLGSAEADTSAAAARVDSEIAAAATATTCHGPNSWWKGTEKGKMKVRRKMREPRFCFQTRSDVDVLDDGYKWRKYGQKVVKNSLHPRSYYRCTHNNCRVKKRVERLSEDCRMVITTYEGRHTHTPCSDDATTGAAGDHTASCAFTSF"}, "source": "paper PMC7819943", "about": "“Rice protein-binding microarrays: a tool to detect cis-acting elements near promoter regions in rice”", "note": "The other results are listed elsewhere or left out."}
{"target": "OsWRKY34 (Oryza sativa, UniProt Q0JBA9 1-250)", "assay": "protein-binding microarray (RPBM); PBS, 2% BSA, 51.3 ng/ul salmon testes DNA, 50 uM zinc acetate, 200 nM TF, 25 C, 1 h; high values mean tight binding", "details": "protein: recombinant; tags: N-terminal polyhistidine and DsRed monomer fusion (pET32a); label: CyDye5-dUTP incorporated in the synthesized complementary strand; 3' TTTTT single-stranded linker to array surface; dsDNA, one strand shown", "method_in_brief": "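Ni–NTA purification followed expression in E. coli BL21-CodonPlus of transcription factors fused N-terminally to a polyhistidine tag and DsRed. At 200 nM in PBS with 2% BSA, salmon testes DNA and 50 µM zinc acetate, the protein was incubated for 1 h at 25 °C with a custom Agilent array that had been primer-extended with Cy5-dUTP and blocked with 2% BSA. After washing, the array was read on an Axon 4000B scanner. The binding signal is per-feature fluorescence intensity in arbitrary units.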"}
{"sequence": "GATCTCTCTTTATTTTCAGTGTAGCTGAATTTGACATTTTCGGAGTCACCTAGTGCAG", "binding signal": "8050 fluorescence intensity (a.u.)"}
{"sequence": "ACCAACTGTTTCACCATGCACCTACACTGTTGTTCTTTTACGGAGTCACCTAGTGCAG", "binding signal": "9720 fluorescence intensity (a.u.)"}
{"sequence": "GTAGAGAAGAGAGATGATGTATTTATTAATGGCCCACTTTCGGAGTCACCTAGTGCAG", "binding signal": "8910 fluorescence intensity (a.u.)"}
{"sequence": "TGTATAATGTTTGGTTGTGTATATCCATCTATGAACGGATCGGAGTCACCTAGTGCAG", "binding signal": "8400 fluorescence intensity (a.u.)"}
{"sequence": "GGATATTTCGCCATAATTATAGCCAATCCGTTTCTCTTTCCGGAGTCACCTAGTGCAG", "binding signal": "10300 fluorescence intensity (a.u.)"}
{"sequence": "TATAAAGTTACGGTTCCATCAAGGTCATATATGCTTGACTCGGAGTCACCTAGTGCAG", "binding signal": "9520 fluorescence intensity (a.u.)"}
{"sequence": "GAGATACTTGACTATTTTCTGTGTACTCCCTTCGTTTCATCGGAGTCACCTAGTGCAG", "binding signal": "9680 fluorescence intensity (a.u.)"}
{"sequence": "TGCTTCTGCCTCATCCCTTCTTGTCGTCCACGCCGCCATCCGGAGTCACCTAGTGCAG", "binding signal": "12500 fluorescence intensity (a.u.)"}
{"sequence": "AACCACGCTGATCCCAAACCCCATTCCGCCTCTCTCGGCCCGGAGTCACCTAGTGCAG", "binding signal": "8530 fluorescence intensity (a.u.)"}
{"sequence": "CTTCCCTGCTCTGCTCATCTCCTCTGCTCCAGTTCAGAAACGGAGTCACCTAGTGCAG", "binding signal": "10300 fluorescence intensity (a.u.)"}
{"sequence": "CCCACCACCGACCGCCGCAGAGAAAAAGCCCATGTCGTCACGGAGTCACCTAGTGCAG", "binding signal": "8420 fluorescence intensity (a.u.)"}
{"sequence": "GTCCAGGCTTAATTCAATCATTATATGTACATATCTTTGTCGGAGTCACCTAGTGCAG", "binding signal": "8140 fluorescence intensity (a.u.)"}
{"sequence": "ATCTAGGATACCGTTGACTTTTCGTACTAACATTTGACGTCGGAGTCACCTAGTGCAG", "binding signal": "32800 fluorescence intensity (a.u.)"}
{"sequence": "CTTCTTCGCCAGATCCCTTGGTCTTCTCGTAGATCTCTGACGGAGTCACCTAGTGCAG", "binding signal": "10700 fluorescence intensity (a.u.)"}
{"sequence": "CAGCTCGGATTCGTCCCACACCGATGAAATTACCGCCCATCGGAGTCACCTAGTGCAG", "binding signal": "9040 fluorescence intensity (a.u.)"}
{"sequence": "CAGCAGTACACATCATGTACTACTTACCGATTTCATCAGCCGGAGTCACCTAGTGCAG", "binding signal": "8510 fluorescence intensity (a.u.)"}
{"sequence": "GTGGGTCCCACGCTGAGTCAGCTGCCACGTCGGACAAAACCGGAGTCACCTAGTGCAG", "binding signal": "8160 fluorescence intensity (a.u.)"}
{"sequence": "TAGTCCACCACTCACTCCAGCAGTCCACCTTAGCAAGCAACGGAGTCACCTAGTGCAG", "binding signal": "8030 fluorescence intensity (a.u.)"}
{"sequence": "TCCTTAGCTTCCTTCTGTCGACTTGTCTATTCTTTTTTTCCGGAGTCACCTAGTGCAG", "binding signal": "17700 fluorescence intensity (a.u.)"}
{"sequence": "ATCTAGAGCGGTTGTTAGCGCAGTGGTAGTGTGTTATCTTCGGAGTCACCTAGTGCAG", "binding signal": "8430 fluorescence intensity (a.u.)"}
{"sequence": "CTTTGCTTATCCCTTTTTAGTGGAGATTGTTGAGTATATCCGGAGTCACCTAGTGCAG", "binding signal": "8930 fluorescence intensity (a.u.)"}
{"sequence": "TACTCCCTCCGTTTCAAATGACACCATTGACTTTTTAGCACGGAGTCACCTAGTGCAG", "binding signal": "9430 fluorescence intensity (a.u.)"}
{"sequence": "CAATCGCTCTCATTAACTGGCACGCATAACGGTTGCTTCACGGAGTCACCTAGTGCAG", "binding signal": "8360 fluorescence intensity (a.u.)"}
{"sequence": "CCAGACCACCACCACCACCACCACCCCACCCAGCTGGTGCCGGAGTCACCTAGTGCAG", "binding signal": "8030 fluorescence intensity (a.u.)"}
{"sequence": "GTACAGACCATATGTCCCGCGACCTCGAGTCCTCCTTTCCCGGAGTCACCTAGTGCAG", "binding signal": "8980 fluorescence intensity (a.u.)"}
{"sequence": "TGTGCTTCCCTCACTGCGCCACCACTCCACCACCTCCACCCGGAGTCACCTAGTGCAG", "binding signal": "9410 fluorescence intensity (a.u.)"}
{"sequence": "AATACCTATAAATACTTATCACGTCCGTCCCTAAATATAACGGAGTCACCTAGTGCAG", "binding signal": "8300 fluorescence intensity (a.u.)"}
{"sequence": "TATATTTTCCTTAGCTCAATAGTAGGATTTTTTTTTTCTGCGGAGTCACCTAGTGCAG", "binding signal": "9520 fluorescence intensity (a.u.)"}
{"sequence": "TGAGCCTTGCTCGTCGGCGGCGAGGTGGGGTGGGGCGGGGCGGAGTCACCTAGTGCAG", "binding signal": "20800 fluorescence intensity (a.u.)"}
{"sequence": "GTACTGTTTTAGCTTTATTCATGTTTAACGTTTCACCGTTCGGAGTCACCTAGTGCAG", "binding signal": "9650 fluorescence intensity (a.u.)"}
{"sequence": "TTTCTTGTAGTTGGCTCTTATTTTGGGGTTGGTCTTGCCTCGGAGTCACCTAGTGCAG", "binding signal": "13900 fluorescence intensity (a.u.)"}
{"sequence": "CTCTACGGCCTGTTTGTTTCCATTTAAAATTTATTGTAATCGGAGTCACCTAGTGCAG", "binding signal": "9780 fluorescence intensity (a.u.)"}
{"sequence": "ATTTTCATTTTCTTTTGATGTTTAGGTATTGCTACTATCGCGGAGTCACCTAGTGCAG", "binding signal": "9700 fluorescence intensity (a.u.)"}
{"sequence": "AAATCCACCTCTCTGAATACGCCCGCCATCTTCCATCTCCCGGAGTCACCTAGTGCAG", "binding signal": "13700 fluorescence intensity (a.u.)"}
{"sequence": "GGGGTGGGGTTGGCGGCGACGCGGGCGAGGCCGAGGAGGACGGAGTCACCTAGTGCAG", "binding signal": "13400 fluorescence intensity (a.u.)"}
{"sequence": "CTGCTGTCTTCCTCAATCCTGGGTTCAGATGTTTCACCTCCGGAGTCACCTAGTGCAG", "binding signal": "11200 fluorescence intensity (a.u.)"}
{"sequence": "GTTGCAGGGATTATGGTTGACTAGAAACATGTTTGAGTGGCGGAGTCACCTAGTGCAG", "binding signal": "9640 fluorescence intensity (a.u.)"}
{"sequence": "TTTTTCTCTCTTGGTCCACGTGCTGATGTTTTTTCTCCATCGGAGTCACCTAGTGCAG", "binding signal": "14400 fluorescence intensity (a.u.)"}
{"sequence": "ACGTCGTGCTGTTTTTTCTCTGAATTTTGTTCAAATTTATCGGAGTCACCTAGTGCAG", "binding signal": "15700 fluorescence intensity (a.u.)"}
{"sequence": "CCGCGGTTCATCATTCTTTGGCCTCTCCGAAACCTAGATCCGGAGTCACCTAGTGCAG", "binding signal": "8860 fluorescence intensity (a.u.)"}
{"sequence": "CTGCATCTAATTACGTGATAATCACTTTTTCCCTCGTTTTCGGAGTCACCTAGTGCAG", "binding signal": "10200 fluorescence intensity (a.u.)"}
{"sequence": "TATAGTCGTCTGGTTTGTCTTTGTTAAAATTGTACAATTTCGGAGTCACCTAGTGCAG", "binding signal": "8170 fluorescence intensity (a.u.)"}
